First the molecules themselves.
B1: jouberin (protein, UniProt Q8K3E5 1-1047)
chain: MEPETPEKVDSAQEKVRGKTPTADDSDDSREKTGIEEKGELTDAYQLQVAEEMAKEIKKKIRKKLKEQLTYFPPDTLLHDDKLASEKRKKKKKKVPVPTKPESSPSDVCDSAVEGEQKKEGTPEDSQHMEGICSREQDVDATVPENAKPKPKKTKKKTKAVSNDNEDTNGDGVHEITSRDSPVHPKCLLDDDLVMGVYIHRTDRLKSDFMISHPMVKIHVVDEHTGQYVKKDDSERPVSSYYEKDNVDYILPIMTQPYDFKKLKSRLPEWEEQVIFNENFPYLLREFEECPKVILFFEILDFLSMDEIKNNSEVQNQECGFRKIAWAFLKLLGANGNANINSKLRLQLYYPPTKPRSQLNVVEVFEWWSKCPRNRYPSTLYVTVRGLKVPDCIKPSYRSMMALQEERGTPVYCERHRETSSVDTEPGLEDSKEEVKWKRLPGQACRIPNKHLFSLNAGERGCFCLDFSHNGRILAAACASRDGYPIILYEIPSGRFMRELCGHLNIIYDLDWSKDDRYLVTSSSDGTARVWKNEINSTSTFRVLPHPSFVYTAKFHPATRELVVTGCYDSMIRIWKIDAREDAAILVRQLDVHKSFVNSICFDDEGHHMYSGDCIGVIVVWDTYVKVNDVQTSVRHWTINKEIKETEFRGVPISYLEVHPNGKRLLIHTKDSTLRIMDLRILAARKFVGAANYREKIHSTLTPCGTLLFSGSEDGIVYVWNPETGEQVAMYSDLPFKSTIRDISYHPLENMVAFCAFGQSEPILLYIYDFQVAQQEAEMLKRYSGTLPLPGIHQSEDALCTCPKLPQQGSFQIDEFVNTENSSSRKIQLVKQRLETVTEVIRSCAAKVNKNLSMTSPPPGPAKKPRVKQSFVLTTDEIIHQFGLPQTAFISIERGPFVRHVDPPPMVVALYDYTASRSDELTIHRGDIIRVYFKDNEDWWYGSVRKGQEGFFPANHVASETLYRDSPPKVKERSPPLTPKEKTKPEKPLASQKQSLSKGRPLDPRLGPQPVGHSEKGKDQNVEDRGHKVDMETKKSEPVVRKVTLIE

Protein sequences, listed by entry. Tags and fused reporters are not part of them.
UniProt Q80TJ1: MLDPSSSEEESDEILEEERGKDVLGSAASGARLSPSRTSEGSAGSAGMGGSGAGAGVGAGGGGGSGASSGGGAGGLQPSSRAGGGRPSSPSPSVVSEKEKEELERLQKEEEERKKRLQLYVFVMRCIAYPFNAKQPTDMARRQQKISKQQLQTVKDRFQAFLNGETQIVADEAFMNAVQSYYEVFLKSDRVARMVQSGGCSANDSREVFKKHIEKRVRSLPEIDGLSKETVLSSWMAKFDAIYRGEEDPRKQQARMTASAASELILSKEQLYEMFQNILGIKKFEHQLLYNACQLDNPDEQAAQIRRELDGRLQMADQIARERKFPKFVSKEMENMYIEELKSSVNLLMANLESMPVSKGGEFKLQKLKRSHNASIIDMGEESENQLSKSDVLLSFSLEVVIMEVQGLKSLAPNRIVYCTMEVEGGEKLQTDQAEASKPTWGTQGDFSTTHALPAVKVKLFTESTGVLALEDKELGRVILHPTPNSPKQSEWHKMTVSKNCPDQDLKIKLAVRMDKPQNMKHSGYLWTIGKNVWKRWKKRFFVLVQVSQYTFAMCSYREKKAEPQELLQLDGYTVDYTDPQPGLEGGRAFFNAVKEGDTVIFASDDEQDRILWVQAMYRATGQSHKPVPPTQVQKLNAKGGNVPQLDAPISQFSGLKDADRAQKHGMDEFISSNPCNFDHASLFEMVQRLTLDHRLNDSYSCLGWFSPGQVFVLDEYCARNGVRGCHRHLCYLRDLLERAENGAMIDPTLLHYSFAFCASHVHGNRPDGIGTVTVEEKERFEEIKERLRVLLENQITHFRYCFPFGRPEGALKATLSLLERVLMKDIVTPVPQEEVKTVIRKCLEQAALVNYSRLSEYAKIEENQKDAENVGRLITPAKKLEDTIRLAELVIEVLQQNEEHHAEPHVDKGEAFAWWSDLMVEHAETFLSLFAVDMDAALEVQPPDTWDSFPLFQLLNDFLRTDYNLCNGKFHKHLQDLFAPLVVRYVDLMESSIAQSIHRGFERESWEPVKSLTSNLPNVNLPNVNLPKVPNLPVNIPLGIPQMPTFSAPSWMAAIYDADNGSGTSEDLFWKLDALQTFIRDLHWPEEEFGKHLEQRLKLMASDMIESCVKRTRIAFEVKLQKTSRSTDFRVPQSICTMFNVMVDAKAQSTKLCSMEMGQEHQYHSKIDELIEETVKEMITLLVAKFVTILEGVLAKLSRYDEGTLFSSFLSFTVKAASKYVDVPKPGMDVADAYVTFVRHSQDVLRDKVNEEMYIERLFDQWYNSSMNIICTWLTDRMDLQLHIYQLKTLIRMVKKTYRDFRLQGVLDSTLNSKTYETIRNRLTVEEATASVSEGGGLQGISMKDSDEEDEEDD
UniProt Q7TSJ2: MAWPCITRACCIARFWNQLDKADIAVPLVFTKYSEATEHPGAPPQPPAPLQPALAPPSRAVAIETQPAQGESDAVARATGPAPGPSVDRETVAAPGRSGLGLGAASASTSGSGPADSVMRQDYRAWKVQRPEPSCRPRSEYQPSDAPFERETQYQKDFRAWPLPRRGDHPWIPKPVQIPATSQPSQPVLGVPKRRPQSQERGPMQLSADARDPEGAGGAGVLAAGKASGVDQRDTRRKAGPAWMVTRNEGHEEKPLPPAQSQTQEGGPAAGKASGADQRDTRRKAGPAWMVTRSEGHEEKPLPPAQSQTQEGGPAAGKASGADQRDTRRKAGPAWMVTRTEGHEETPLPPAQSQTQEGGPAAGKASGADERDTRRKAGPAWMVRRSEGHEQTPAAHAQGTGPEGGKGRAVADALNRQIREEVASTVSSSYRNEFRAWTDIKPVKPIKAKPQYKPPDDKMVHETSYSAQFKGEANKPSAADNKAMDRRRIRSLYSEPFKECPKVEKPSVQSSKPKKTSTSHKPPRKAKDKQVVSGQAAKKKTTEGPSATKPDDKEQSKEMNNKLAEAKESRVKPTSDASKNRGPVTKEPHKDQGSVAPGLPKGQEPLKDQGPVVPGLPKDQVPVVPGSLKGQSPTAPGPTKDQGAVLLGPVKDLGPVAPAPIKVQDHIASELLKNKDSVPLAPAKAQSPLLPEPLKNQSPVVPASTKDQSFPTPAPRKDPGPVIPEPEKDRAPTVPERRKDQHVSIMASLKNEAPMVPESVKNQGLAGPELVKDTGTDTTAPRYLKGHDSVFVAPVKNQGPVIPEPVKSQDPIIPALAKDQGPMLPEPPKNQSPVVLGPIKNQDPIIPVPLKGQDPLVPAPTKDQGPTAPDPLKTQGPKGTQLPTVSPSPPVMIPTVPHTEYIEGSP
UniProt O08788: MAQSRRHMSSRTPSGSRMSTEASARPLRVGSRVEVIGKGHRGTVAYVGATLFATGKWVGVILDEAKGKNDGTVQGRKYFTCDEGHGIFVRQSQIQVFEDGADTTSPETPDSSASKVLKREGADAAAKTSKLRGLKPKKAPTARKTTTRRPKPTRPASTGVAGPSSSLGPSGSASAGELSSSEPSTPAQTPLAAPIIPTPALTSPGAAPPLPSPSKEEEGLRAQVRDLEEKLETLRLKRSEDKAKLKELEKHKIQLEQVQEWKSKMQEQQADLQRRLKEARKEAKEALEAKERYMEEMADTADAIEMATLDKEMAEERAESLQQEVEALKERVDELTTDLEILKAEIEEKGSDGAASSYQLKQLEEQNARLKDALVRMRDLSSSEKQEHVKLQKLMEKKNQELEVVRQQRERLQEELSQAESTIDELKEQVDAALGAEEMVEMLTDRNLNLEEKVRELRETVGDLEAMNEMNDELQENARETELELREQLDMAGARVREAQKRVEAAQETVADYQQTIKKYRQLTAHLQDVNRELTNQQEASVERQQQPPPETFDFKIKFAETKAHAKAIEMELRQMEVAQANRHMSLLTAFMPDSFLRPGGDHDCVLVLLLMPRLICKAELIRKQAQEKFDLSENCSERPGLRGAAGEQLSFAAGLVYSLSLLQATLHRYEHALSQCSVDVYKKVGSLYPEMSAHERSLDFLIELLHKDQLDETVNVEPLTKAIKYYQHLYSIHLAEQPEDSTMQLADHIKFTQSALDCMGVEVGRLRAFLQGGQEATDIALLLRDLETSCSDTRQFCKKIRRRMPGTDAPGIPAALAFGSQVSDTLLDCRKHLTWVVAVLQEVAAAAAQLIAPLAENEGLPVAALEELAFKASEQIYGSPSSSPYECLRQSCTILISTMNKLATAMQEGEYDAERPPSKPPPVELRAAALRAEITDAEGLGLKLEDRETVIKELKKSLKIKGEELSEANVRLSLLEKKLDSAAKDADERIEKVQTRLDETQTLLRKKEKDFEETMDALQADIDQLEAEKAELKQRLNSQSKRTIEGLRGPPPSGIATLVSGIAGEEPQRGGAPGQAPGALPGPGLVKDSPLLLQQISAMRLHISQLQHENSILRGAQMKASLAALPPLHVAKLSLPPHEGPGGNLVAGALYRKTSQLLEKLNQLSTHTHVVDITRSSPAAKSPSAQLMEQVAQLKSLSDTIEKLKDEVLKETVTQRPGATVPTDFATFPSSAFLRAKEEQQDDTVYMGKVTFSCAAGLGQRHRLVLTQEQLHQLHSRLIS

Results are given in words; binding and its absence hold for the method and conditions named. Binding seen in cells or lysates may run through a third protein. Here binding means that the protein was enriched with, or labelled near, the bait; the list need not be complete.

The target of the assay is calcium-dependent activator protein for secretion 1 (CAPS1) (mouse (endogenous in whole mouse brain)) (UniProt Q80TJ1). Description: affinity purification with mass spectrometry; immunoprecipitation of endogenous CAPS1 from precleared whole mouse brain lysate with a rabbit anti-CAPS1 antibody (3 h, room temperature) and Protein G Dynabeads (1 h); lysis buffer 20 mM HEPES, 150 mM KCl, 0.05% Tween-20, 100 nM CaCl2, pH 7.4, 300 mM sucrose; rabbit IgG as negative control; eluates analysed by nano-LC-MS/MS, three independent eluates.
For MAP6 (from UniProt Q7TSJ2 1-906), the binding entry is “binds”.

For “dynactin subunit 1 (from UniProt O08788 1-1281)”, the binding entry is reported as “binds”.

Turning to B1, the binding result was “binds”.

For the origin of these results see PMC9049930.
